Measurements published in article PMC12435490.
Results are given in words; binding and its absence hold for the method and conditions named. In cells and extracts the contact can be indirect. Some binding calls cover weakened binding; strength is not graded here. For part of these data: Where a sequence is shown, tags or fusion partners need not be part of it.

By UniProt entry, the sequences of proteins in these tests, tags left out.
UniProt P67775: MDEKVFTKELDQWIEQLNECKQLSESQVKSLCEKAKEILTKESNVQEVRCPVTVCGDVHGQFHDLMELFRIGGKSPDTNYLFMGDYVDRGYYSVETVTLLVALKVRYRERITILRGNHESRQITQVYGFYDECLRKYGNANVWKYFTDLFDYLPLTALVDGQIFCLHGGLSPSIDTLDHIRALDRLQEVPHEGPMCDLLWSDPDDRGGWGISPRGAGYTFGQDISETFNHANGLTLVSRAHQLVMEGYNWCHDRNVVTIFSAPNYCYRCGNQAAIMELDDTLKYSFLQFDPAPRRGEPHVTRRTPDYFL
UniProt P35222: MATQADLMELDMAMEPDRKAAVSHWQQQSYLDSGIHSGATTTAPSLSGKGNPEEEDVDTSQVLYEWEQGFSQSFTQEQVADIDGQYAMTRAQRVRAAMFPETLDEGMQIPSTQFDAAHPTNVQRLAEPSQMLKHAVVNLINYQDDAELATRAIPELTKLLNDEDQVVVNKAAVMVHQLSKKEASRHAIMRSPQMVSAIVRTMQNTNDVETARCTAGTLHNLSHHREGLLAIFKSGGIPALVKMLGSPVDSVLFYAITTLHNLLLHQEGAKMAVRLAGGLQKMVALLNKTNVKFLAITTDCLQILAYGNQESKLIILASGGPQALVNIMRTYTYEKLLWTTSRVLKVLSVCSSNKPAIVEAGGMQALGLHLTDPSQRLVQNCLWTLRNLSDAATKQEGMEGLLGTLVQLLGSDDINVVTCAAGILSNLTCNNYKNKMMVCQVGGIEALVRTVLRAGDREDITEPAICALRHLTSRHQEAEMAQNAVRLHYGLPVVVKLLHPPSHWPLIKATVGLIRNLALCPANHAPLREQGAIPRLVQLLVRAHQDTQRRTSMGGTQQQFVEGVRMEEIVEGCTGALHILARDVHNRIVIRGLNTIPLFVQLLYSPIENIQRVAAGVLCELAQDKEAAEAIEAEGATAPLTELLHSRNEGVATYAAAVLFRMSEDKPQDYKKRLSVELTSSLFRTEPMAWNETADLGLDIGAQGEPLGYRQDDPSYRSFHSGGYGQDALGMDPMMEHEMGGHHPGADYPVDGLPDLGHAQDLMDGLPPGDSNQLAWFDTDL

Legend:
[1] = target: T1, Flag-MKRN2 (wild type), expressed in HEK293T cells (human) (UniProt Q9H000); assay: co-IP; exogenous; HEK293T cells overexpressing Flag-MKRN2 (wild type or truncation) and/or Myc-PPP2CA, western blot
T1 sequence: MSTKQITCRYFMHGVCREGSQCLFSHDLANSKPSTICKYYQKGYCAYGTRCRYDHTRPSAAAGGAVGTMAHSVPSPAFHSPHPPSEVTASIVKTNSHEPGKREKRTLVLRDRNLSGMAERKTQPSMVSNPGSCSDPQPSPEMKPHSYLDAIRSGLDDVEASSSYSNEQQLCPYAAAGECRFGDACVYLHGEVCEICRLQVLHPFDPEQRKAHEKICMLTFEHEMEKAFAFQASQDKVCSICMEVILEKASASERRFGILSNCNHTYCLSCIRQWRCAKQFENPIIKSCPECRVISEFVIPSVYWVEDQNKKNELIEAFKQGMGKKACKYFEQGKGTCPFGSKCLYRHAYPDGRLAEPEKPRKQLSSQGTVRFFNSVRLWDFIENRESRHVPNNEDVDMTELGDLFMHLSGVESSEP

[2] = target: T2, Makorin Ring Finger Protein 2 (MKRN2), endogenous (human (endogenous in A498 and Caki-1)) (UniProt Q9H000); assay: co-IP; endogenous proteins; A498 and Caki-1 cell lysates incubated overnight at 4°C with primary antibody or IgG, protein A/G magnetic beads, washed with modified RIPA buffer, western blot
T2 sequence: T1 sequence

[3] = target: Protein Phosphatase 2 Catalytic Subunit Alpha (PPP2CA), endogenous (human (endogenous in A498 and Caki-1)) (UniProt P67775); assay: as above

## Myc-PPP2CA, expressed in HEK293T cells (from UniProt P67775 1-309)
[1]
  binding: binds

## Protein Phosphatase 2 Catalytic Subunit Alpha (PPP2CA), endogenous (from UniProt P67775 1-309)
[2]
  binding: binds

## β-Catenin, endogenous (from UniProt P35222 1-781)
[3]
  binding: binds
